Binding data for six molecules are collected here from doi:10.1101/2022.08.31.505651.

Substitutions are numbered along the chain they refer to. Numbers in names are those of the source. These are yes or no findings as the source states them, for the method shown. Binding seen in cells or lysates may run through a third protein. Some entries that bind do so weakly or less than the wild type. Where a sequence is shown, tags or fusion partners need not be part of it.

Test in all cases: co-IP
In test [1] the target is T1, 3xFLAG-NEK1 full length (1-1286) (human) (UniProt Q96PY6).
T1 sequence: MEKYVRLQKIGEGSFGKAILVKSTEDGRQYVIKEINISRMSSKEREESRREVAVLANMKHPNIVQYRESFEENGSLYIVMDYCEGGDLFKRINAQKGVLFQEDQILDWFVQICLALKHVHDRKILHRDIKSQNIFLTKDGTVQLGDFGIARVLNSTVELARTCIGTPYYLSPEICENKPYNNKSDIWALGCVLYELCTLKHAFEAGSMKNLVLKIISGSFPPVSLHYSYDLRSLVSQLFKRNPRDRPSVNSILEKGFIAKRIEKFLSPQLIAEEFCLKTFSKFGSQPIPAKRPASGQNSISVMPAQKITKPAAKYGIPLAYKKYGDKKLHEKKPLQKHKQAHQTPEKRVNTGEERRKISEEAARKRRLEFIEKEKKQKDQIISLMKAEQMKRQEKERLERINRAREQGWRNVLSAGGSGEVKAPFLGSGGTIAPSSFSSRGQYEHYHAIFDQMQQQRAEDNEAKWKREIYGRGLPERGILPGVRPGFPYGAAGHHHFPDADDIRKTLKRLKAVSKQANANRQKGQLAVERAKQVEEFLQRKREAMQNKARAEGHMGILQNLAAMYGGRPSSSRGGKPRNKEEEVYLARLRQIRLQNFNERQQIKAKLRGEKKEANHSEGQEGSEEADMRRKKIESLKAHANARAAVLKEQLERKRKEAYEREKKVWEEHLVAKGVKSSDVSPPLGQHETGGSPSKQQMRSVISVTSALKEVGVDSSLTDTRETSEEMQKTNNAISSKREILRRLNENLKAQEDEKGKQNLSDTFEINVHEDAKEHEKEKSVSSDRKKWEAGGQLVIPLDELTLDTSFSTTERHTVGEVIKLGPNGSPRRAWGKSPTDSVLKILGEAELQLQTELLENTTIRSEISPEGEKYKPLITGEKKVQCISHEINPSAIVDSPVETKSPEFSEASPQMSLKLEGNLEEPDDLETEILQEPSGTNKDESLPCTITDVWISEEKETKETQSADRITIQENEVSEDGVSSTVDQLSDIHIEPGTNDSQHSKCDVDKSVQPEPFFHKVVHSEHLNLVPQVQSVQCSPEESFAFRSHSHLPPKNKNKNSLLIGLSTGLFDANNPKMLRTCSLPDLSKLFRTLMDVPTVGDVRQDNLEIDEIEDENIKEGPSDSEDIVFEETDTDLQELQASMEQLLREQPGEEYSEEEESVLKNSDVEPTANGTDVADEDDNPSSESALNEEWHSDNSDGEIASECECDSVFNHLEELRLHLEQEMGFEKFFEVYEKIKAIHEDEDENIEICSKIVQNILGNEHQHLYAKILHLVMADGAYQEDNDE

The target in a further test is T2, GFP-C21ORF2 (human) (UniProt O43822).
T2 sequence: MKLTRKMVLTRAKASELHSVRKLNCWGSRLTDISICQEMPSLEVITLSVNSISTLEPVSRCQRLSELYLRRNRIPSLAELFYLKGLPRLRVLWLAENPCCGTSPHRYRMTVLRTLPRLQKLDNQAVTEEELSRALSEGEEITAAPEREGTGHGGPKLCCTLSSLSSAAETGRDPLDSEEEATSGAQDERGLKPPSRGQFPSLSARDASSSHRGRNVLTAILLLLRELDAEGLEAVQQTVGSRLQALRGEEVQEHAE

The target of test [2] is T3, 3xHA-C21ORF2 L224P (human) (UniProt O43822).
T3 sequence: T2 sequence with L224P

The target of test [3] is T4, 3xHA-C21ORF2 R73P (human) (UniProt O43822).
T4 sequence: T2 sequence with R73P

For test [4], the target named is T5, 3xHA-C21ORF2 T150I (human) (UniProt O43822).
T5 sequence: T2 sequence with T150I

The target in test [5] is T6, 3xHA-C21ORF2 wild type (human) (UniProt O43822).
T6 sequence: T2 sequence

B1: 3xHA-C21ORF2 R73P (protein, UniProt O43822-1 1-256)
chain: T2 sequence with R73P
Take B1: the binding entry in test [1] is listed as “binds”.

B2: 3xHA-C21ORF2 L224P (protein, UniProt O43822-1 1-256)
chain: T2 sequence with L224P
Turning to B2, in test [1], the binding result is “binds”.

B3: 3xHA-C21ORF2 T150I (protein, UniProt O43822-1 1-256)
chain: T2 sequence with T150I
Take B3: the binding entry in test [1] was “binds”.

B4: 3xFLAG-NEK1 aa 760-1286 (C-terminal acidic domain) (domain or fragment, UniProt Q96PY6-3 760-1286)
chain: LSDTFEINVHEDAKEHEKEKSVSSDRKKWEAGGQLVIPLDELTLDTSFSTTERHTVGEVIKLGPNGSPRRAWGKSPTDSVLKILGEAELQLQTELLENTTIRSEISPEGEKYKPLITGEKKVQCISHEINPSAIVDSPVETKSPEFSEASPQMSLKLEGNLEEPDDLETEILQEPSGTNKDESLPCTITDVWISEEKETKETQSADRITIQENEVSEDGVSSTVDQLSDIHIEPGTNDSQHSKCDVDKSVQPEPFFHKVVHSEHLNLVPQVQSVQCSPEESFAFRSHSHLPPKNKNKNSLLIGLSTGLFDANNPKMLRTCSLPDLSKLFRTLMDVPTVGDVRQDNLEIDEIEDENIKEGPSDSEDIVFEETDTDLQELQASMEQLLREQPGEEYSEEEESVLKNSDVEPTANGTDVADEDDNPSSESALNEEWHSDNSDGEIASECECDSVFNHLEELRLHLEQEMGFEKFFEVYEKIKAIHEDEDENIEICSKIVQNILGNEHQHLYAKILHLVMADGAYQEDNDE
In the case of B4, in the test with GFP-C21ORF2 (human), the binding result was “binds”.

B5: 3xFLAG-NEK1 full length (1-1286) (enzyme, UniProt Q96PY6-3 1-1286)
chain: T1 sequence
In the case of B5, the binding result (in test [2]; in test [3]; in test [4]; in test [5]; in the test with GFP-C21ORF2 (human)) was “binds” throughout.

B6: 3xFLAG-NEK1 R261H (enzyme, UniProt Q96PY6-3 1-1286)
chain: T1 sequence with R261H
Consider B6, for which, in test [5], the binding result is recorded as “binds”.
